Measurements: PubChem BioAssay AID540276 (National Center for Advancing Translational Sciences (NCATS), 2011)
“And” between values parts separate entries of the source, which are not always exact repeats. Equal entries are not always repeated. The campaign covered roughly 300,000 compounds. About 5,400 (1.8%) were called active. Inconclusive results, whose numbers are uncertain, are shown with a selection of clear calls. The call rests on the fitted dose curve; tested in HEK293 cells. Where the call is inconclusive, the potency comes from a doubtful curve fit.

Experiment: qHTS for inhibitors of binding or entry into cells for Marburg Virus
Conditions: Marburg virus pseudotyped entry inhibition, cell reporter; activity change, negative = inhibition: at 37.8 µM (top of the series) unless noted
On the % scale 0 is the no-effect control and ±100 the full control effect; potency means the concentration at half of the fitted maximal effect.

Structure (SMILES)	Potency	activity change, negative = inhibition
CCN1CCN(c2ccc(S(=O)(=O)N3CCCCC3)cc2NC(=O)/C=C/c2cccc(OC)c2OC)CC1	inconclusive: 17.8 µM [inhibitor, single point]	
CC(C)CC(=O)c1c[nH]c(C(=O)NCCCN2CCOCC2)c1		inactive: -0.371%
O=C(CSc1nnc2c(n1)[nH]c1ccc(F)cc12)NCc1ccc(F)cc1		inactive: 2.88% [at 46.1 µM]
CC(c1cccs1)N(C)Cc1nc(CCc2ccccc2)no1 (configuration not stated)		inactive: 8.97%
COCCn1c(-c2ccc(NC(C)=O)cc2)nc2c1c(=O)[nH]c(=O)n2CC(C)C		inactive: 0.39%
Cc1ccccc1Cn1nc(C)c(NC(=O)c2cc(CC(C)C)on2)c1C	inactive and inconclusive: 22.4 µM [inhibitor, single point]	
CCn1cc(/C=C(\NC(=O)c2ccccc2Cl)C(=O)N2CCN(C)CC2)c2ccccc21	inconclusive: 7.08 µM [inhibitor, partial curve, poor fit]	
O=C1CC(c2cccc(Cl)c2Cl)c2cc3c(cc2N1)OCCO3 (configuration not stated)	inconclusive: 3.16 µM [inhibitor, single point]	
CCCN(CCC)CCCNC(=O)c1ccc2c(c1)N(CC)C(=O)c1ccccc1S2=O (configuration not stated)	inactive and inconclusive: 9.2 µM [inhibitor, partial curve]	
Cc1cc(C(=O)COC(=O)Cc2n[nH]c(=O)c3ccccc23)c(C)n1-c1ccc2c(c1)OCCO2		inactive: 8.05%
CCc1nn(CC(=O)N2CCN(c3cccc(Cl)c3)CC2)c(=O)c2cc3sccc3n12	inconclusive: 8.91 µM [activator, partial curve]	
C=CCNc1nc2c(c(=O)[nH]c(=O)n2C)n1CC(O)COc1ccc2ccccc2c1 (configuration not stated)	inconclusive: 1.26 µM [inhibitor, full curve, poor fit]	
CC(C)Nc1nc2nonc2nc1Nc1ccccc1	inconclusive: 35.5 µM [inhibitor, single point]	
CN(C)c1ccc(/C=N/NC(=O)C2COc3ccccc3O2)o1 (configuration not stated)	inconclusive: 0.112 µM [inhibitor, full curve, poor fit]	
O=C(COC(=O)c1cc(S(=O)(=O)N2CCCCC2)ccc1N1CCOCC1)c1ccc(Cl)cc1	inconclusive: 14.1 µM [inhibitor, single point]	
Cc1ccccc1Cn1ccc(NC(=O)c2cnn3c(C(F)(F)F)cc(-c4ccco4)nc23)n1	inconclusive: 11.6 µM [inhibitor, partial curve]	
CCOC(=O)c1ccccc1NC(=O)NCc1cccn1Cc1ccc(F)cc1	inconclusive: 1.12 µM [inhibitor, full curve, poor fit]	
Cc1ccc(NC(=O)CCn2c(=O)[nH]c3ccsc3c2=O)cc1		inactive: 27.1% [at 46.1 µM]
Cc1ccc(CNC(=O)NC23CC4CC(CC(C4)C2)C3)cc1	inconclusive: 1.26 µM [inhibitor, single point]	
COc1cccc(CNC(=O)c2cccc(S(=O)(=O)N3CCN(Cc4ccccc4)CC3)c2)c1	inconclusive: 15.8 µM [activator, single point]	
Cc1cccc(NC(=S)NC2CCCC2)c1		inactive: 16%

Entries listed so far that have sulfur (9):
Structure (SMILES)	Potency	activity change, negative = inhibition
CCN1CCN(c2ccc(S(=O)(=O)N3CCCCC3)cc2NC(=O)/C=C/c2cccc(OC)c2OC)CC1	inconclusive: 17.8 µM [inhibitor, single point]	
O=C(CSc1nnc2c(n1)[nH]c1ccc(F)cc12)NCc1ccc(F)cc1		inactive: 2.88% [at 46.1 µM]
CC(c1cccs1)N(C)Cc1nc(CCc2ccccc2)no1 (configuration not stated)		inactive: 8.97%
CCCN(CCC)CCCNC(=O)c1ccc2c(c1)N(CC)C(=O)c1ccccc1S2=O (configuration not stated)	inactive and inconclusive: 9.2 µM [inhibitor, partial curve]	
CCc1nn(CC(=O)N2CCN(c3cccc(Cl)c3)CC2)c(=O)c2cc3sccc3n12	inconclusive: 8.91 µM [activator, partial curve]	
O=C(COC(=O)c1cc(S(=O)(=O)N2CCCCC2)ccc1N1CCOCC1)c1ccc(Cl)cc1	inconclusive: 14.1 µM [inhibitor, single point]	
Cc1ccc(NC(=O)CCn2c(=O)[nH]c3ccsc3c2=O)cc1		inactive: 27.1% [at 46.1 µM]
COc1cccc(CNC(=O)c2cccc(S(=O)(=O)N3CCN(Cc4ccccc4)CC3)c2)c1	inconclusive: 15.8 µM [activator, single point]	
Cc1cccc(NC(=S)NC2CCCC2)c1		inactive: 16%

Going on with the list.

Structure (SMILES)	Potency	activity change, negative = inhibition
O=C(O)c1ccc(CNS(=O)(=O)c2ccc3ccccc3c2)cc1		inactive: -2.77% [at 46.1 µM]
Fc1ccc2c(c1)C(c1ccncc1)=NNC(c1ccc(Br)cc1)=N2		inactive: -13.1%
Cc1ccccc1C(=O)c1cccn1CC(=O)NCCCN1CCc2ccccc2C1	inconclusive: 22.4 µM [inhibitor, single point]	
CC1CCCCN1Cc1nc2c(c(=O)n(C)c(=O)n2C)n1CCCc1ccccc1 (configuration not stated)	inconclusive: 6.31 µM [inhibitor, single point]	
CCC(C)C(=O)Nc1nnc(CCc2ccccc2)s1 (configuration not stated)	inconclusive: 14.1 µM [inhibitor, partial curve, poor fit]	
CC1(C)C2CCC1(C)C(NC1=NCCC1)C2 (configuration not stated)	inconclusive: 2.51 µM [activator, full curve, poor fit]	
COc1ccc(NC(=O)C(=O)NCC2CCCN2S(=O)(=O)c2cccs2)cc1 (configuration not stated)	inconclusive: 3.16 µM [inhibitor, partial curve, poor fit]	
COc1ccccc1CNC(=O)CSCc1nc(-c2ccc(OC)c(OC)c2)oc1C	inconclusive: 17.8 µM [inhibitor, single point]	
COc1cc(Cl)c(C)cc1NC(=O)c1cccc(OC)c1OC	inconclusive: 3.98 µM [activator, partial curve, poor fit]	
CO/N=C(\C(=O)N[C@@H]1C(=O)N2C(C(=O)O)=C(COC(C)=O)CS[C@H]12)c1csc(N)n1	inconclusive: 0.1 µM [inhibitor, full curve, poor fit]	
OC(c1ccccc1)C1CN(Cc2ccccc2)CCC1(O)c1ccccc1 (configuration not stated)	inconclusive: 20.6 µM [inhibitor, single point]	
Cc1ccc(NC(=O)CN2C(=O)c3ccccc3S2(=O)=O)c(C)c1		inactive: 1.21% [at 46.1 µM]
O=C(O)CC1(CC(=O)Nc2nccs2)CCCCC1	inconclusive: 8.91 µM [activator, partial curve, poor fit]	
Cc1ccc(N(C(=O)Nc2ccccc2)C2=NCC(C)S2)cc1 (configuration not stated)	inactive	
CCOc1ccc(NC(=O)N2CCC(c3ccc(C)cc3)C2)cc1 (configuration not stated)	inconclusive: 5.8 µM [activator, single point]	
CC1CCN(S(=O)(=O)c2ccc(C(=O)Nc3ccccc3-c3nc4ccccc4[nH]3)cc2)CC1		inactive: -9.96%
Cc1oc(-c2ccccc2)cc1C(=O)Nc1cccc2ccccc12		inactive: -4.22%
Cc1ccc2oc(-c3cccc(NC(=S)NC(=O)c4cccs4)c3)nc2c1	inconclusive: 0.112 µM [activator, full curve, poor fit]	
CCOc1ccc(N(CC(=O)O)S(=O)(=O)c2ccc(F)cc2)cc1	inconclusive: 6.31 µM [inhibitor, single point]	
Cc1ccc(N(Cc2cc3ccc(C)cc3[nH]c2=O)S(=O)(=O)c2ccccc2)cc1	inconclusive: 31.6 µM [inhibitor, partial curve, poor fit]	
Cc1cc(Cl)ccc1OCC(=O)N1CCC(c2nc3ccccc3o2)CC1		inactive: 12.7% [at 46.1 µM]
